# Experimental data reported in patent US6340702B1 (priority 1996, dated 2002).
# Some of these results come from one statement about several compounds together. At least one compound was matched to its structure with a doubt left.
# Test system: mouse-acclimated influenza virus A/PR/8/34 strain
# Design: species or system mice (BALB/C)
# Conditions: in vivo
row,Compound,influenza infection therapeutic effects compared with Compound A
1,"5-Acetamido-4-(C-aminooxy-C-iminomethylamino)-7-O-tetradecanoyl-2,3,4,5-tetradeoxy-D-glycero-D-galacto-non-2-enopyranosoic acid [Example 4]",superior to those of Compound A
2,"5-Acetamido-4-(C-aminooxy-C-iminomethylamino)-9-O-tetradecanoyl-2,3, 4,5-tetradeoxy-D-glycero-D-galacto-non-2-enopyranosoic acid [Example 5]",superior to those of Compound A
3,"CCCCCC(=O)OCC(O)C(O)[C@@H]1OC(C(=O)O)=CC(NC(=N)ON)C1NC(C)=O (stereo partly drawn) [Example 3, 5-Acetamido-4-(C-aminooxy-C-iminomethylamino)-9-O-hexanoyl-2,3,4,5-tetradeox-D-glycrid-D-galacto-non-2-enopyranosic acid]",superior to those of Compound A
4,"CC(=S)N[C@H]1[C@H]([C@H](O)[C@H](O)CO)OC(C(=O)O)=C[C@@H]1N=C(N)N.O=C(O)C(F)(F)F [Example 8, 4-Guanidino-5-thioacetamido-2,3,4,5-tetradeoxy-D-glycero-D-galacto-non-2-enopyranosoic acid trifluoroacetic acid salt]",superior to those of Compound A
